Experimental data as given in EP4676953A2.
No constants are given. Whether binding was seen depends on the method and setting. A result given as binding can be weak or reduced; the word gives no strength.

By UniProt entry, the sequences of proteins in these tests, tags left out. Where a name states a change or a piece, a line headed by the entry shows the natural chain unless it says otherwise.
UniProt Q9Y337: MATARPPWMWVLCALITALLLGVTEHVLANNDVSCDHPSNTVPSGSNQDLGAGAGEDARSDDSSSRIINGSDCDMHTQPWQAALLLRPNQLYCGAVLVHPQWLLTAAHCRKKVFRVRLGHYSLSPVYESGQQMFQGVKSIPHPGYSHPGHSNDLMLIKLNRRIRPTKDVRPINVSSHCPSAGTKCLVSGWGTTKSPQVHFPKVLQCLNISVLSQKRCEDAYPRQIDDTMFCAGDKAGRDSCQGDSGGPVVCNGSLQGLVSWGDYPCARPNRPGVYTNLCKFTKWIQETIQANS

Target: active form of human KLK5 (huKLK5) (human) (UniProt Q9Y337)
Assay: Biacore sandwich binning, SPINK5 coupled to CM5 chip (legend of FIG. 6)

B1: recombinant human SPINK5 (protein, UniProt Q9NQ38 490-757, looked up)
chain: EAAKEICSEFRDQVRNGTLICTREHNPVRGPDGKMHGNKCAMCASVFKLEEEEKKNDKEEKGKVEAEKVKREAVQELCSEYRHYVRNGRLPCTRENDPIEGLDGKIHGNTCSMCEAFFQQEAKEKERAEPRAKVKREAEKETCDEFRRLLQNGKLFCTRENDPVRGPDGKTHGNKCAMCKAVFQKENEERKRKEEEDQRNAAGHGSSGGGGGNTQDECAEYREQMKNGRLSCTRESDPVRDADGKSYNNQCTMCKAKLEREAERKNEY
binding: binds
